Measurements as given in paper PMC5216755.
Results are given in words; binding and its absence hold for the method and conditions named. In cells and extracts the contact can be indirect. Some entries that bind do so weakly or less than the wild type.

How the values were obtained:
[1] = molecular target: PPP3CA (endogenous, Jurkat T-ALL cells) (human (endogenous in Jurkat)) (UniProt Q08209); assay: co-IP; endogenous PPP3CA immunoprecipitated from Jurkat lysates (RIPA lysis, diluted 1:3 with CO-IP buffer) with a mouse antibody against PPP3CA or irrelevant mouse Ig; basal conditions and after 1 h ionomycin, cyclosporin A or vehicle; immunoblot of endogenous partners
[2] = molecular target: FLAG/HA epitope-tagged PPP3CA constitutively active mutant (F/H-PPP3CA*), stably expressed in Jurkat cells (human) (UniProt Q08209); assay: co-IP; F/H-PPP3CA*-expressing or mock-transduced Jurkat cells; IP anti-FLAG; immunoblot of endogenous partners

binding [1]: binds
binding [2]: binds
B1: Rb (endogenous, Jurkat) (protein, UniProt P06400 1-928)
chain: MPPKTPRKTAATAAAAAAEPPAPPPPPPPEEDPEQDSGPEDLPLVRLEFEETEEPDFTALCQKLKIPDHVRERAWLTWEKVSSVDGVLGGYIQKKKELWGICIFIAAVDLDEMSFTFTELQKNIEISVHKFFNLLKEIDTSTKVDNAMSRLLKKYDVLFALFSKLERTCELIYLTQPSSSISTEINSALVLKVSWITFLLAKGEVLQMEDDLVISFQLMLCVLDYFIKLSPPMLLKEPYKTAVIPINGSPRTPRRGQNRSARIAKQLENDTRIIEVLCKEHECNIDEVKNVYFKNFIPFMNSLGLVTSNGLPEVENLSKRYEEIYLKNKDLDARLFLDHDKTLQTDSIDSFETQRTPRKSNLDEEVNVIPPHTPVRTVMNTIQQLMMILNSASDQPSENLISYFNNCTVNPKESILKRVKDIGYIFKEKFAKAVGQGCVEIGSQRYKLGVRLYYRVMESMLKSEEERLSIQNFSKLLNDNIFHMSLLACALEVVMATYSRSTSQNLDSGTDLSFPWILNVLNLKAFDFYKVIESFIKAEGNLTREMIKHLERCEHRIMESLAWLSDSPLFDLIKQSKDREGPTDHLESACPLNLPLQNNHTAADMYLSPVRSPKKKGSTTRVNSTANAETQATSAFQTQKPLKSTSLSLFYKKVYRLAYLRLNTLCERLLSEHPELEHIIWTLFQHTLQNEYELMRDRHLDQIMMCSMYGICKVKNIDLKFKIIVTAYKDLPHAVQETFKRVLIKEEEYDSIIVFYNSVFMQRLKTNILQYASTRPPTLSPIPHIPRSPYKFPSSPLRIPGGNIYISPLKSPYKISEGLPTPTKMTPRSRILVSIGESFGTSEKFQKINQMVCNSDRVLKRSAEGSNPPKPLKKLRFDIEGSDEADGSKHLPGESKFQQKLAEMTSTRTRMQKQKMNDSMDTSNKEEK
